“And” between values parts separate entries of the source, which are not always exact repeats. Identical values can stand only once. Counter-ions that a name gives are not always drawn. ± gives the standard deviation of the averaged measurements. The list shows a part of the results. Plates or batches differ in their baseline, so values are only roughly comparable.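 Primary human stellate myofibroblasts activated in culture; inactivation shown by regained lipid droplets. Readout: fraction of Hoechst-counted cells exceeding a per-plate Bodipy threshold, duplicate wells, each plate with DMSO negative and nortriptyline positive controls. Hits: control-normalized score beyond the plate's top-tenth-percentile nortriptyline wells, or among its three best wells. Final well concentrations unstated.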
Tested on: primary human hepatic stellate cells (donor 1)
Assay: percent Bodipy-positive cells; higher = more lipid droplet accumulation
Details: 48 h
[1] = library stock concentration: 1 mM
[2] = library stock concentration: 3.33 mM
[3] = library stock concentration: 10 mM
[4] = library stock concentration: 400 uM
[5] = library stock concentration: 2 mM
[6] = library stock concentration: 5.2 mM
[7] = library stock concentration: 80 uM

SMILES: CC(C)(Oc1ccc(CCNC(=O)c2ccc(Cl)cc2)cc1)C(=O)O [Bezafibrate]
- percent Bodipy-positive cells: 30.6 ± 7.7%
- percent Bodipy-positive cells [1]: 10.5 ± 3.2%
- percent Bodipy-positive cells [2]: 10.4 ± 4.3%
- percent Bodipy-positive cells [3]: 26.4% and 30.4% and 27.1%

SMILES: CC(C)(Oc1ccc(CCNC(=O)c2ccc(Cl)cc2)cc1)C(=O)O [bezafibrate]
- percent Bodipy-positive cells (library stock concentration: 13.8 mM): 13.3 ± 11%

SMILES: CCCCCCCCCCCCCC(=O)N[C@H](C)[C@@H](O)c1ccccc1 [D-erythro-MAPP]
- percent Bodipy-positive cells [1]: 10.4% and 5.97%

SMILES: COc1cc2c(Nc3ccc(Br)cc3F)ncnc2cc1OCC1CCN(C)CC1 [Vandetanib  (ZD6474, Zactima) (0.4 mM)]
- percent Bodipy-positive cells [4]: 80.6 ± 8.3%

SMILES: COc1cc2c(Nc3ccc(Br)cc3F)ncnc2cc1OCC1CCN(C)CC1 [Vandetanib  (ZD6474, Zactima) (2 mM)]
- percent Bodipy-positive cells [5]: 98.41 ± 0.24%

SMILES: CC1=C(/C=C/C(C)=C/C=C/C(C)=C/C=C/C=C(C)/C=C/C=C(C)/C=C/C2=C(C)CCCC2(C)C)C(C)(C)CCC1 [Beta Carotene]
- percent Bodipy-positive cells [2]: 6.91 ± 0.34%
- percent Bodipy-positive cells [3]: 12.1 ± 2.3%

SMILES: O=S(=O)(c1cccc2c(Cl)cccc12)N1CCCNCC1
- percent Bodipy-positive cells [3]: 84.9 ± 7.5%

SMILES: COC(=O)CCCCCCC1C(O)CC(O)C1CCC(O)C#Cc1ccccc1F (centres undefined)
- percent Bodipy-positive cells [1]: 8.3 ± 1.4%

SMILES: CC(C(=O)O)c1ccc(CC2CCCC2=O)cc1 (centres undefined)
- percent Bodipy-positive cells [3]: 11 ± 0.65%

SMILES: CC(C(=O)O)c1ccc(CC2CCCC2=O)cc1 (centres undefined) [loxoprofen]
- percent Bodipy-positive cells [3]: 23.7 ± 2.9%

SMILES: CC[C@H]1OC(=O)[C@H](C)[C@@H](O[C@H]2C[C@@](C)(OC)[C@@H](O)[C@H](C)O2)[C@H](C)[C@@H](O[C@@H]2O[C@H](C)C[C@H](N(C)C)[C@H]2O)[C@](C)(O)C[C@@H](C)C(=O)[C@H](C)[C@@H](O)[C@]1(C)O
- percent Bodipy-positive cells [3]: 55.2 ± 2%

SMILES: CC[C@H]1OC(=O)[C@H](C)[C@@H](O[C@H]2C[C@@](C)(OC)[C@@H](O)[C@H](C)O2)[C@H](C)[C@@H](O[C@@H]2O[C@H](C)C[C@H](N(C)C)[C@H]2O)[C@](C)(O)C[C@@H](C)C(=O)[C@H](C)[C@@H](O)[C@]1(C)O [Erythromycin]
- percent Bodipy-positive cells: 33.2 ± 1.3%
- percent Bodipy-positive cells [2]: 11.3 ± 1.6%
- percent Bodipy-positive cells [3]: 15.3% and 4.45%

SMILES: CCOC(=O)N1CCC(=C2c3ccc(Cl)cc3CCc3cccnc32)CC1 [Loratadine]
- percent Bodipy-positive cells [2]: 9.1 ± 0.79%
- percent Bodipy-positive cells [6]: 12.8% and 12%
- percent Bodipy-positive cells [3]: 21.6% and 40%

SMILES: CCOC(=O)N1CCC(=C2c3ccc(Cl)cc3CCc3cccnc32)CC1 [Loratidine]
- percent Bodipy-positive cells [3]: 14.9 ± 0.22%

SMILES: CCOC(=O)N1CCC(=C2c3ccc(Cl)cc3CCc3cccnc32)CC1
- percent Bodipy-positive cells [3]: 20.2 ± 10%

SMILES: O=C(NOCC1CC1)c1ccc(F)c(F)c1Nc1ccc(I)cc1Cl
- percent Bodipy-positive cells [7]: 8.65 ± 0.82%
- percent Bodipy-positive cells [4]: 8.58% and 11.5%
- percent Bodipy-positive cells [5]: 6.01% and 22.2%
- percent Bodipy-positive cells [2]: 13.7 ± 10%

SMILES: Nc1nc(F)nc2c1ncn2[C@@H]1O[C@H](COP(=O)(O)O)[C@@H](O)[C@@H]1O [Fludarabine Phosphate]
- percent Bodipy-positive cells [2]: 64.1 ± 10%
- percent Bodipy-positive cells [3]: 83 ± 5.1%

SMILES: COc1[nH]c2ccc(F)cc2c1C(=O)OCC1CCN(CCNS(C)(=O)=O)CC1.NS(=O)(=O)O
- percent Bodipy-positive cells [3]: 36.6 ± 8.4%

SMILES: CC1(C)CCC(c2ccc(Cl)cc2)=C(CN2CCN(c3ccc(C(=O)NS(=O)(=O)c4ccc(N[C@H](CCN5CCOCC5)CSc5ccccc5)c(S(=O)(=O)C(F)(F)F)c4)cc3)CC2)C1 [ABT-263 (Navitoclax)]
- percent Bodipy-positive cells [2]: 7 ± 0.17%
- percent Bodipy-positive cells [3]: 11.3 ± 1.9%

SMILES: O=C(COc1ccc(C(=O)c2ccccc2)cc1)NC1CCN(Cc2ccccc2)CC1 [AdipoRon]
- percent Bodipy-positive cells [2]: 39.2 ± 1.6%
- percent Bodipy-positive cells [3]: 61.3 ± 12%

SMILES: NC(=O)c1ccccc1O [Salicylamide]
- percent Bodipy-positive cells [3]: 15.2 ± 1%

SMILES: COc1ccc(CC(C)NCC(O)c2ccc(O)c(NC=O)c2)cc1 (centres undefined) [Formoterol Hemifumarate]
- percent Bodipy-positive cells [2]: 12.3 ± 2.5%
- percent Bodipy-positive cells [3]: 35.2 ± 14%

SMILES: COc1ccc(CC(C)NCC(O)c2ccc(O)c(NC=O)c2)cc1 (centres undefined) [Formoterol]
- percent Bodipy-positive cells [3]: 68.6 ± 16%

SMILES: COc1ccc(CC(C)NCC(O)c2ccc(O)c(NC=O)c2)cc1 (centres undefined) [Formoterol hemifumarate]
- percent Bodipy-positive cells [3]: 11.7 ± 8.1%

SMILES: COc1ccc(CC(C)NCC(O)c2ccc(O)c(NC=O)c2)cc1 (centres undefined)
- percent Bodipy-positive cells [3]: 13.7 ± 0.19%

SMILES: O=C(OCCN1CCOCC1)C1(c2ccccc2)CCCCC1
- percent Bodipy-positive cells [3]: 44.4 ± 15%

SMILES: O=C(OCCN1CCOCC1)C1(c2ccccc2)CCCCC1 [PRE-084 hydrochloride]
- percent Bodipy-positive cells [3]: 7.621 ± 0.069%

SMILES: Cc1ccc2c(c1)C(=O)C1(O)CCN(c3ccccc3)C1=N2 (single isomer, unassigned; (-)) [(-)-Blebbistatin]
- percent Bodipy-positive cells [7]: 13.7 ± 6.8%
- percent Bodipy-positive cells [4]: 12 ± 2.8%
- percent Bodipy-positive cells [1]: 8.47 ± 0.44%
- percent Bodipy-positive cells [5]: 9.18 ± 2.3%
- percent Bodipy-positive cells [2]: 26.9 ± 3.3%
- percent Bodipy-positive cells [3]: 43.2 ± 28%

SMILES: CC(C)C[C@H](NC(=O)[C@H](Cc1ccccc1)NC(=O)c1cnccn1)B(O)O [Bortezomib (PS-341)]
- percent Bodipy-positive cells [2]: 81.8 ± 1.3%
- percent Bodipy-positive cells [3]: 92.1 ± 2.6%

SMILES: CC(C)C[C@H](NC(=O)[C@H](Cc1ccccc1)NC(=O)c1cnccn1)B(O)O [Bortezomib]
- percent Bodipy-positive cells [6]: 84 ± 6.4%

SMILES: CS(=O)(=O)c1ccc(C(=O)Nc2ccc(Cl)c(-c3ccccn3)c2)c(Cl)c1 [Vismodegib (GDC-0449)]
- percent Bodipy-positive cells [2]: 9.85 ± 0.16%
- percent Bodipy-positive cells [3]: 17.1 ± 6.5%

SMILES: O=C1C(c2c(O)[nH]c3ccccc23)=Nc2ccccc21 [Indirubin]
- percent Bodipy-positive cells [2]: 7.18 ± 2%
- percent Bodipy-positive cells [3]: 30.8 ± 9.4%

SMILES: O=C1C(c2c(O)[nH]c3ccccc23)=Nc2ccccc21
- percent Bodipy-positive cells [3]: 35.7 ± 1.5%

SMILES: CNc1nc(-c2ccc3c(N)n[nH]c3c2)cc(N2C[C@@H](C(=O)NC3CCCCC3)CC[C@H]2C)n1
- percent Bodipy-positive cells [7]: 11.4 ± 0.88%
- percent Bodipy-positive cells [4]: 7.78 ± 2.9%
- percent Bodipy-positive cells [5]: 10.39 ± 0.052%
- percent Bodipy-positive cells [2]: 15.1 ± 10%
- percent Bodipy-positive cells [3]: 79% and 62%

SMILES: CCCCCCCC/C=C\CCCCCCCC(=O)c1nc2ncccc2o1 [Oleoyl Oxazolopyridine]
- percent Bodipy-positive cells [1]: 6.41 ± 1.1%

SMILES: COc1ccc(-c2coc3cc(O)ccc3c2=O)cc1 [Formononetin]
- percent Bodipy-positive cells [2]: 8.92 ± 3.9%

SMILES: CN1CCN(S(=O)(=O)c2ccc(-c3cnc(N)c(C(=O)Nc4cccnc4)n3)cc2)CC1
- percent Bodipy-positive cells [2]: 91.9 ± 2.6%

Source: the supplement of paper PMC9135407
